Measurements as given in patent publication US20250312407A1, “PEPTIDE AND USE THEREOF” (AJINOMOTO CO., INC., priority 2019, published 2025).
Some of these results come from one statement about several compounds together.

system: male KK-Ay mice; assay: Insulin tolerance test (ITT); assay type: in vivo, mouse; conditions: 30 mg/kg oral, insulin 0.5 U/kg s.c. 1 hr later, profile and ΔAUC vs vehicle group
Description: The administration medium (0.5% methylcellulose; vehicle) or compound 1 (30 mg/kg) was orally administered to male KK-Ay mice (7 to 12 weeks old) that had been fasted from 17 o'clock the day before, and insulin (0.5 U/kg) was subcutaneously administered 1 hr later. Blood was collected from the tail vein before administration, and 15, 30, 60, 120 and 180 min after administration, and the blood glucose level was measured. The blood glucose level was also measured for compounds 2 to 6 by a similar method. The results of the area under curve (ΔAUC) of the blood glucose level profile calculated with the 0-minute value as the standard are shown in FIG. 3(b).

Row | Sequence | blood glucose level after insulin (insulin sensitivity improving effect), ITT
1 | IVTQTMKG (Designed peptide) [compound 5] | insulin sensitivity improving effect was similarly found
2 | IVTQTMKGL (Designed peptide) [compound 4] | insulin sensitivity improving effect was similarly found
3 | LIVTQTMKG (Designed peptide) [compound 2] | insulin sensitivity improving effect was similarly found
4 | VTQTMKGL (Designed peptide) [compound 6] | insulin sensitivity improving effect was similarly found
